Experimental data published in article PMC6294250.
Results are given in words; binding and its absence hold for the method and conditions named. Binding calls can cover weak binding; strength is not graded here. For some of these results: In cells and extracts the contact can be indirect. For some of these results: Where a sequence is shown, tags or fusion partners need not be part of it.

Experiments:
[1] = molecular target: TGNap1-CFP (Arabidopsis thaliana); assay: FRET or BRET; acceptor photobleaching FRET at the TGNs in cells of stable Arabidopsis transformants; donor TGNap1-CFP, acceptor YFP fusions bleached for 10 s
[2] = molecular target: TGNap1 (yeast two-hybrid bait) (Arabidopsis thaliana) (UniProt F4KCQ2); assay: two-hybrid; direct assay, Matchmaker LexA system, bait in pGilda, prey in pB42AD-GW, co-transformed into yeast strain EGY48; β-galactosidase assay, plates after 3 days at 28 °C

Binder | binding [1] | binding [2]
YFP-YIP4B (protein, UniProt Q93VH1 1-280) MSHNDTIPLYQSSQSDIDEIENMMNDSFQSGPGTVLPARPPSPIRPSIPVSSSPFVQSNLPPLPPSSSSSTQKVMPVPAPPPLPSAGNEGNKSIGGSGFGSPPNTLTEPVWDTVKRDLSRIVSNLKLVVFPNPYREDPGKALRDWDLWGPFFFIVFLGLTLSWSASVKKSEVFAVAFALLAAGAVILTLNVLLLGGHIIFFQSLSLLGYCLFPLDVGAVICMLKDNVILKMVVVSVTLAWSSWAAYPFMSAAVNPRRKALALYPVFLMYVSVGFLIIAIN | binds | –
N-terminal cytosolic domain of YIP4A (aa 1-140) (domain or fragment, UniProt O64614 1-140) MSQGDTVPLHPSSQSDIDEIENLINESVQSGPGTVLAARPPSPTRPSIPVSSSSSSSPFMQSNLPPLHPSSSAQKVTHVPVPPPLPAVSNSSNFQGASAFGSPPNTLTEPVWDTVKRDLSRIVSNLKLVVFPNPYREDPG | – | binds
N-terminal cytosolic domain of YIP4B (aa 1-143) (domain or fragment, UniProt Q93VH1 1-143) MSHNDTIPLYQSSQSDIDEIENMMNDSFQSGPGTVLPARPPSPIRPSIPVSSSPFVQSNLPPLPPSSSSSTQKVMPVPAPPPLPSAGNEGNKSIGGSGFGSPPNTLTEPVWDTVKRDLSRIVSNLKLVVFPNPYREDPGKALR | – | binds
YFP-YIP4A (protein, UniProt O64614 1-281) MSQGDTVPLHPSSQSDIDEIENLINESVQSGPGTVLAARPPSPTRPSIPVSSSSSSSPFMQSNLPPLHPSSSAQKVTHVPVPPPLPAVSNSSNFQGASAFGSPPNTLTEPVWDTVKRDLSRIVSNLKLVVFPNPYREDPGKALRDWDLWGPFFFIVFLGLTLSWSASVKKSEVFAVAFALLAAGAVILTLNVLLLGGHIIFFQSLSLLGYCLFPLDVGAVICMLKDNVILKMVVVSVTLAWSSWAAYPFMSSAVNPRRKALALYPVFLMYVSVGFLIIAIN | binds | –
